# In the odorant receptor screen of Mainland et al. (2015):
# Chains of the proteins cited; added tags and fusions are not shown. Chains listed by the source or under a name are the forms on record and can include a tag or linker.
# OR11H13, as listed by the source: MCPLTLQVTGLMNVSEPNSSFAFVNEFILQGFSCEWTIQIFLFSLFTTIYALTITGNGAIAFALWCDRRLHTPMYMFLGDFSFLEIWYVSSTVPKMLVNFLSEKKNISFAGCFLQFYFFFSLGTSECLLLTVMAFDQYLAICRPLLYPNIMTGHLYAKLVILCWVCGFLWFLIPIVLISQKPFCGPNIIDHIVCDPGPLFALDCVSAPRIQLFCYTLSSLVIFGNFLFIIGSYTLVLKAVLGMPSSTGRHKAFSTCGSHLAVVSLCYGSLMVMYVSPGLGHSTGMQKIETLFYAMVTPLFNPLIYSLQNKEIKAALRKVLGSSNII
# “And” between values parts separate entries of the source, which are not always exact repeats. Equal entries are not always repeated. This is one part of the list. Single wells; the ratio to wells without odorant was worked out here, and repeats agree poorly.
# Assays:
# Test in all cases: odorant receptor activation (CRE luciferase / Renilla) (fold of no-odor wells); higher = more activation
# Settings in all cases: 100 µM
# [1] = tested on: OR10R2 clone 1400
# [2] = tested on: OR10T2 clone 1032
# [3] = tested on: OR10V1 Q101L/V117A/Q123W clone 1520
# [4] = tested on: OR10W1 R263Q clone 1176
# [5] = tested on: OR10X1 clone 1368
# [6] = tested on: OR10X1 clone 1516
# [7] = tested on: OR10Z1 clone 1026
# [8] = tested on: OR11A1 clone 1062
# [9] = tested on: OR11H1 clone 1558
# [10] = tested on: OR11H12 clone 1302
# [11] = tested on: OR11H13 clone 1435
# [12] = tested on: OR11H4 clone 1263
# [13] = tested on: OR11H4 clone 1423
# [14] = tested on: OR11H6 clone 1275
# [15] = tested on: OR11L1 G108S/F117L/A142T/R171P clone 1031
# [16] = tested on: OR12D2 V47F/L56P/S104F/F113L/L120R/V159I clone 1373
# [17] = tested on: OR12D2 clone 1075
# [18] = tested on: OR12D3 clone 1071
# [19] = tested on: OR13A1 clone 1107
# [20] = tested on: OR13C2 clone 1717
SMILES,odorant receptor activation [1],odorant receptor activation [2],odorant receptor activation [3],odorant receptor activation [4],odorant receptor activation [5],odorant receptor activation [6],odorant receptor activation [7],odorant receptor activation [8],odorant receptor activation [9],odorant receptor activation [10],odorant receptor activation [11],odorant receptor activation [12],odorant receptor activation [13],odorant receptor activation [14],odorant receptor activation [15],odorant receptor activation [16],odorant receptor activation [17],odorant receptor activation [18],odorant receptor activation [19],odorant receptor activation [20]
CC(C)=CCCC(C)=CC=O [citral],0.15,1.02,1.12,1.04,0.19,1.44,1.33,0.923,1.19,1.42,0.183,1.2,0.179,1.11,1.14,0.279,1.41,1.05,1.25,0.914
C=CCc1ccc(OC(C)=O)c(OC)c1 [eugenol acetate],1.77,1.68,2.21,1.82,1.59,1.96,2.01,1.97,1.76,1.67,1.41,1.52,2.2,1.61,2.16,1.29,1.64,1.7,2.12,3.29
C=C(C)C1CC=CCC1 (stereo not given) [r-limonene],1.11 and 0.657,1.01 and 1.6,0.949 and 0.503 and 0.89,0.917 and 0.312,0.753 and 1.17,0.989 and 1.08 and 0.877,0.911 and 1.12,1.32 and 1.24,1.02,0.787 and 0.437,1.43 and 0.996,0.813 and 0.686,1.17 and 0.803,0.796 and 0.867,1.02 and 1.83,1.21 and 1.06,1.19 and 1.41,1.23 and 1.02,1.14 and 1.08,1.19
CCCCCC(=O)O [caproic acid],0.154,0.72,0.802,1.03,0.188,1.17,0.918,0.949,0.715,0.782,0.152,0.676,0.132,0.744,0.979,0.23,1.23,0.984,0.883,0.732
CC12CCC(CC1)C(C)(C)O2 [cineole],0.125,0.727,0.834,0.728,0.212,1.14,0.994,0.853,0.863,0.813,0.158,0.954,0.125,1,0.864,0.186,0.905,0.606,1.07,1
CC1=CCC(C(C)(C)O)CC1 (stereo not given) [terpineol],0.923,1.08,0.773,1.29,0.68,0.666,0.915,1.68,1.23,1.04,1.15,0.958,0.949,0.855,0.795,0.917,1.03,0.9,1.16,1.03
CCCCCCOC(=O)CCC [hexyl butyrate],0.78,0.509,0.729 and 1.1,1.16,0.838,1.1 and 1.01,0.602,0.59,0.941,1.2 and 0.666,0.682,1.29 and 1.32,0.953,0.814 and 0.834,0.406,0.816,0.873,0.711,1.1,1.11
c1ccc(Oc2ccccc2)cc1 [diphenyl ether],1.08,0.929,1.11,0.943,0.955,1.34,0.842,1.1,0.695,1.27,1.09,0.88,1.04,1.09,1.01,0.93,1.05,0.873,0.909,0.956
c1cnccn1 [pyrazine],1.04,1.05,0.924,0.9,0.62,0.571,0.778,1.12,0.911,0.91,1.38,0.831,0.992,0.73,0.697,0.965,1.12,0.933,1.11,0.899
COC(=O)c1ccccc1O [methyl salicylate],1.39,1.02,1.02,0.796,0.901,0.885,0.925,1.13,0.892,0.991,1.65,0.938,1.25,0.826,1.05,1.05,1.09,1.44,1.27,0.745
O=CCc1ccccc1 [phenyl acetaldehyde],1.43,1.21,1.25,1.06,1,1,0.784,1.33,1.8,1.03,1.49,1.12,1.4,1.13,1.08,1.84,1.28,1.36,1.17,1.81
C=CCc1ccc(OC)c(OC)c1 [eugenol methyl ether],1.68,1.61,2.17,1.55,1.5,1.7,1.41,1.46,0.782,1.35,1.33,1.54,1.95,1.52,1.91,1.55,1.38,1.29,1.83,1.05
CCCCO [1-butanol],0.587,3.27,0.987,1.01,0.663,1.58,3.15,3.31,1.27,1.22,2.1,0.96,0.833,0.878,4.65,0.192,2.81,3.33,10.6,0.551

# Individual results from the list.
# Entry for `CCCCCC(=O)O` [caproic acid] under odorant receptor activation [9]: 0.715
# Entry for `O=CCc1ccccc1` [phenyl acetaldehyde] under odorant receptor activation [11]: 1.49
